{"source": "patent US7718611B2", "about": "(priority 2004, dated 2010)", "assay": "general procedure: solution-phase peptide synthesis; HATU / N-methylmorpholine", "conditions": "trifluoroacetate; for step yield: late stage modification step; for cyclisation yield: cyclisation step"}
{"substance": "N^2-(Benzyloxycarbonyl)-N^3-{N^2.1-tert-butoxycarbonyl[(3R)-3-hydroxy-L-leucyl]-L-leucyl-D-arginyl-L-isoleucyl-L-allothreonyl-glycyl-[(3S)-3-hydroxy-L-asparaginyl]-L-seryl}-(3R)-3-amino-L-phenylalanine trifluoroacetate", "values": [{"measurement": "step yield", "value": 77, "unit": "%"}]}
{"substance": "N^2-(Benzyloxycarbonyl)-N^3-{[(3R)-3-hydroxy-L-leucyl]-L-leucyl-D-arginyl-L-isoleucyl-L-allothreonyl-glycyl-[(3S)-3-hydroxy-L-asparaginyl]-L-seryl}-(3R)-3-amino-L-phenylalanine pentafluorophenyl ester bishydrochloride", "values": [{"measurement": "step yield", "value": 96, "unit": "%"}]}
{"substance": "N^2.1-(Benzyloxycarbonyl)-[(3R-3-amino-L-phenylalanyl)]-[(3R)-3-hydroxy-L-leucyl]-L-leucyl-D-arginyl-L-isoleucyl-L-allothreonyl-glycyl-[(3S)-3-hydroxy-L-asparaginyl]-L-serine C^1.9—N^3.1-lactam trifluoroacetate", "values": [{"measurement": "cyclisation yield", "setting": "run 1", "value": 33, "unit": "%"}, {"measurement": "cyclisation yield", "setting": "run 2", "value": 70, "unit": "%"}]}
{"substance": "N^2.1-tert-Butoxycarbonyl[(3R)-3-hydroxy-L-leucyl]-L-leucyl-D-arginyl-L-isoleucyl-L-allothreonyl-glycyl-[(3S)-3-hydroxy-L-asparaginyl]-L-serine trifluoroacetate", "values": [{"measurement": "step yield", "value": 70, "unit": "%"}]}
